Some of the results follow. Further columns of the screen follow, without active or inactive calls. The list favours compounds with an active or inconclusive main result. The note in brackets gives the kind of curve behind each potency; many fits are weak.
Test: qHTS Assay for Modulators of Lamin A Splicing
Conditions: HeLa LMNA splicing GFP/RFP minigene ratio, 48 h
Outline: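 S3 HeLa cells stably expressing lamin A-EGFP splicing minigene plus DsRed2, 600 cells/well, 48 h compound exposure at 37C. Laser-scanning cytometry; analysed as GFP (500-530 nm)/RFP (575-640 nm) total intensity ratio; 0.5% DMSO vehicle.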

[1] = measured here: GFP splicing reporter channel
[2] = measured here: RFP viability control channel

Structure (SMILES) | AC50 [1] | AC50 [2]
O=C(NCc1cccs1)C(=O)NCC(c1ccco1)N1CCN(c2ccccc2F)CC1 (configuration not stated) | 1.26 µM [falling, full curve] | 2.51 µM [falling, partial curve, poor fit]
Fc1cccc(Cn2cc(C(=S)N3CCCCC3)c3ccccc32)c1 |  | 11.2 µM [rising, single point]
COc1ccccc1Oc1coc2c(CN3CCN(C)CC3)c(O)ccc2c1=O |  | 35.5 µM [rising, single point]
COc1ccc(C2=CSC3=NNC4(CCCCC4)NN23)cc1 | 1 µM [falling, full curve] | 0.562 µM [falling, full curve, poor fit]
CCOc1ccc(-c2c(C)nn3c(C)c(C(=O)Nc4cc(C)cc(C)c4)cnc23)cc1OCC | 0.398 µM [falling, full curve] | 0.316 µM [falling, full curve, poor fit]
Cc1sc2nc(C3CC3)nc(N3CCN(S(=O)(=O)c4ccc(F)cc4)CC3)c2c1C |  | 11.2 µM [rising, partial curve, poor fit]
Cc1ccccc1C(=O)Nc1ccc(C(=O)N/N=C/c2ccc(F)cc2)cc1 | 4.47 µM [falling, partial curve] | 6.31 µM [falling, single point]
COc1ccc(-c2nc3scc(CCNS(=O)(=O)c4ccc5c(c4)OCCO5)n3n2)cc1 | 0.282 µM [falling, partial curve] | 
Cc1oc(-c2ccccc2F)nc1CN1CCC(C(=O)NCc2cccs2)CC1 | 2 µM [falling, partial curve] | 2.82 µM [falling, partial curve, poor fit]
CC(C)(C)C(=O)Nc1nc(-c2ccccc2)ns1 |  | 17.8 µM [rising, single point]
Cc1ccc(NC(=O)/C=C/c2ccc([N+](=O)[O-])s2)c(C)c1 | 0.00794 µM [falling, full curve, poor fit] | 35.5 µM [falling, single point]
CC(O)c1cccc(NC(=O)C2CCCCC2)c1 (configuration not stated) |  | 0.501 µM [falling, single point]
CCC(=O)C1=C(c2ccc(C)cc2)N(C(=O)CC)n2c(nnc2C2CCCCC2)S1 |  | 3.55 µM [rising, partial curve]
O=C(CCCCCCCCC(=O)N/N=C/c1ccco1)N/N=C/c1ccco1 | 10 µM [rising, partial curve] | 11.2 µM [rising, partial curve]
CN(C)[C@H]1C(=O)C(C(=O)NCN2CCCC2)=C(O)[C@]2(O)C(=O)C3=C(O)c4c(O)cccc4[C@@](C)(O)[C@H]3C[C@@H]12 | 0.01 µM [falling, full curve, poor fit] | 0.00398 µM [falling, full curve, poor fit]
CCOC(=O)c1cnn(CCOC(=O)c2ccccc2F)c1NC(=O)c1ccccc1F |  | 31.6 µM [rising, single point]
COC(=O)/C(=C\Nc1ccc(Cl)cc1Cl)NC(=O)c1ccccc1 | 14.1 µM [rising, single point] | 25.1 µM [rising, single point]
COc1ccc(NC(=O)c2ccc3c(c2)NC(=O)CS3)cc1S(=O)(=O)Nc1ccc(Br)cc1 |  | 15.8 µM [falling, partial curve]
COc1ccc(/C=C(\C#N)C(=O)OC2CCOC2=O)cc1 (configuration not stated) | 35.5 µM [rising, partial curve] | 
COCCn1c(C)cc(C(=O)CSc2nc3ccccc3c(=O)[nH]2)c1C |  | 7.08 µM [rising, partial curve, poor fit]
COc1cc(Cl)c(S(=O)(=O)N2CCN(Cc3ccc4c(c3)OCO4)CC2)cc1Cl | 20 µM [rising, single point] | 35.5 µM [rising, single point]
C=CC(C1=CC(=O)C(OC)=C(OC)C1=O)c1ccccc1 (configuration not stated) | 10 µM [falling, partial curve] | 10 µM [falling, partial curve]
Cc1ccc(C)c(Cn2c(=O)c3c(nc4n3CCN4c3ccccc3)n(C)c2=O)c1 | 35.5 µM [falling, partial curve] | 35.5 µM [falling, partial curve, poor fit]
CC1CCCC(NC(=O)C2c3ccccc3C(=O)N2Cc2cccs2)C1C (configuration not stated) |  | 12.6 µM [rising, single point]
CC(=O)Nc1n[nH]c(-c2ccc(C)cc2)c1C | 10 µM [rising, partial curve] | 12.6 µM [rising, partial curve]
CC(=O)c1cn(CC(=O)Nc2ccc(C)c(C)c2)c2ccccc12 |  | 0.0282 µM [falling, full curve, poor fit]
O=C(CO/N=C/c1ccc(OC(F)F)cc1)NC1CCCCCC1 | 1.58 µM [falling, full curve, poor fit] | 

3 entries from above, in CSV form:
Structure (SMILES),AC50 [1],AC50 [2]
Cc1oc(-c2ccccc2F)nc1CN1CCC(C(=O)NCc2cccs2)CC1,"2 µM [falling, partial curve]","2.82 µM [falling, partial curve, poor fit]"
Cc1ccc(NC(=O)/C=C/c2ccc([N+](=O)[O-])s2)c(C)c1,"0.00794 µM [falling, full curve, poor fit]","35.5 µM [falling, single point]"
CC(=O)Nc1n[nH]c(-c2ccc(C)cc2)c1C,"10 µM [rising, partial curve]","12.6 µM [rising, partial curve]"

Remaining list, next part

Structure (SMILES) | AC50 [1] | AC50 [2]
O=C(CCSc1ccc(F)cc1)Nc1ccc(-n2cnnn2)cc1 |  | 35.5 µM [rising, single point]
COc1cc2c3nnc(-c4ccc(F)cc4)c-3cn(Cc3ccc(F)cc3)c2cc1OC | 35.5 µM [falling, single point] | 35.5 µM [falling, single point]
COc1ccccc1N1CCN(S(=O)(=O)/C=C/c2ccccc2)CC1 |  | 20 µM [rising, single point]
O=C(Cn1ccn(-c2ccc(F)cc2)c(=O)c1=O)Nc1ccc(F)cc1 | 11.2 µM [falling, partial curve, poor fit] | 0.00447 µM [falling, full curve, poor fit]
COc1ccccc1NC(=O)CCCn1c(=S)[nH]c2ccccc2c1=O |  | 0.00355 µM [falling, full curve, poor fit]
O=C(NCCC1=CCCCC1)c1ccc(Cl)c(S(=O)(=O)Nc2ccccc2)c1 |  | 8.91 µM [rising, partial curve]
O=C(NCCc1ccc(Cl)cc1)c1ccc(CS(=O)(=O)c2ccc(Cl)cc2)o1 | 35.5 µM [falling, single point] | 
O=C(CSCCc1ccccn1)Nc1cccnc1 | 5.62 µM [falling, single point] | 5.62 µM [falling, single point]
O=C1S/C(=C\C=C\c2ccco2)C(=O)N1c1ccccc1 |  | 35.5 µM [rising, single point]
CC(C)(C)c1ccc(Cn2nnc3c(=O)[nH]c(C4CCN(C(=O)Cc5cccs5)CC4)nc32)cc1 | 15.8 µM [rising, single point] | 14.1 µM [rising, single point]
c1ccc(CN=C2NN=C(c3cc4ccccc4o3)CS2)cc1 | 15.8 µM [falling, single point] | 14.1 µM [falling, single point]
COc1ccc(Nc2nnc(-c3ccc(C)cc3)c3ccccc23)cc1C(=O)N1CCCCC1 |  | 35.5 µM [rising, single point]
Cc1ccc2cc(CN(Cc3ccccc3)Cc3nnnn3C3CCCC3)c(=O)[nH]c2c1 |  | 20 µM [rising, single point]
COc1ccccc1/C=N/NC(=O)c1ccc(NC(=O)c2ccccc2Br)cc1 |  | 3.16 µM [falling, partial curve]
O=C(CSc1nnc(Nc2ccccc2)s1)Nc1ccc(S(=O)(=O)N2CCOCC2)cc1 |  | 31.6 µM [rising, single point]
CCN1CCc2c(sc(-n3cccc3)c2C(C)NC(=O)Nc2ccc(Br)cc2)C1 (configuration not stated) | 11.2 µM [rising, partial curve, poor fit] | 
COc1cccc(Nc2nnc(SCc3nc4ccccc4s3)s2)c1 | 35.5 µM [rising, single point] | 25.1 µM [rising, single point]
Cc1ccc(C(=O)N(Cc2ccccc2)C(C)(C)C)cc1C |  | 14.1 µM [rising, single point]
COc1ccc(N(Cc2cccs2)C(=O)c2ccc(OC)c(Cl)c2)cc1 |  | 22.4 µM [rising, partial curve]
Cc1[nH]n(-c2cccc(Cl)c2)c(=O)c1-c1ccc(Cl)cc1 | 2.82 µM [rising, partial curve, poor fit] | 4.47 µM [rising, single point]
Cc1cccc(CNc2ccnc(-c3ccc(N(C)C)cc3)n2)c1 | 20 µM [falling, single point] | 35.5 µM [falling, single point]
O=C(Cc1cccs1)N1CCN=C1SCc1ccc(Br)cc1 | 2.82 µM [rising, full curve] | 15.8 µM [rising, partial curve]
Cc1ccc(C(C(=O)NC2CCCCC2)N(Cc2ccco2)C(=O)Cc2c[nH]c3ccccc23)o1 (configuration not stated) | 25.1 µM [rising, single point] | 35.5 µM [rising, single point]
COc1cccc(N2CCN(C(=O)C3CCN(S(=O)(=O)c4c(C)noc4/C=C/c4ccccc4F)CC3)CC2)c1 | 3.98 µM [falling, full curve, poor fit] | 
c1ccc(-c2cc(N3CCOCC3)nc3ccccc23)cc1 | 12.6 µM [rising, partial curve] | 25.1 µM [rising, partial curve]
CCc1nn2cc(C(=O)c3cc(C)ccc3O)cnc2c1-c1ccc(F)cc1 |  | 2.82 µM [rising, partial curve, poor fit]

— PubChem BioAssay AID1487 (National Center for Advancing Translational Sciences (NCATS), 2009)
